# According to PMC7990204:
# Sequences of proteins named here, by UniProt entry; tags and fusion partners are left off.
# UniProt Q6KCD5: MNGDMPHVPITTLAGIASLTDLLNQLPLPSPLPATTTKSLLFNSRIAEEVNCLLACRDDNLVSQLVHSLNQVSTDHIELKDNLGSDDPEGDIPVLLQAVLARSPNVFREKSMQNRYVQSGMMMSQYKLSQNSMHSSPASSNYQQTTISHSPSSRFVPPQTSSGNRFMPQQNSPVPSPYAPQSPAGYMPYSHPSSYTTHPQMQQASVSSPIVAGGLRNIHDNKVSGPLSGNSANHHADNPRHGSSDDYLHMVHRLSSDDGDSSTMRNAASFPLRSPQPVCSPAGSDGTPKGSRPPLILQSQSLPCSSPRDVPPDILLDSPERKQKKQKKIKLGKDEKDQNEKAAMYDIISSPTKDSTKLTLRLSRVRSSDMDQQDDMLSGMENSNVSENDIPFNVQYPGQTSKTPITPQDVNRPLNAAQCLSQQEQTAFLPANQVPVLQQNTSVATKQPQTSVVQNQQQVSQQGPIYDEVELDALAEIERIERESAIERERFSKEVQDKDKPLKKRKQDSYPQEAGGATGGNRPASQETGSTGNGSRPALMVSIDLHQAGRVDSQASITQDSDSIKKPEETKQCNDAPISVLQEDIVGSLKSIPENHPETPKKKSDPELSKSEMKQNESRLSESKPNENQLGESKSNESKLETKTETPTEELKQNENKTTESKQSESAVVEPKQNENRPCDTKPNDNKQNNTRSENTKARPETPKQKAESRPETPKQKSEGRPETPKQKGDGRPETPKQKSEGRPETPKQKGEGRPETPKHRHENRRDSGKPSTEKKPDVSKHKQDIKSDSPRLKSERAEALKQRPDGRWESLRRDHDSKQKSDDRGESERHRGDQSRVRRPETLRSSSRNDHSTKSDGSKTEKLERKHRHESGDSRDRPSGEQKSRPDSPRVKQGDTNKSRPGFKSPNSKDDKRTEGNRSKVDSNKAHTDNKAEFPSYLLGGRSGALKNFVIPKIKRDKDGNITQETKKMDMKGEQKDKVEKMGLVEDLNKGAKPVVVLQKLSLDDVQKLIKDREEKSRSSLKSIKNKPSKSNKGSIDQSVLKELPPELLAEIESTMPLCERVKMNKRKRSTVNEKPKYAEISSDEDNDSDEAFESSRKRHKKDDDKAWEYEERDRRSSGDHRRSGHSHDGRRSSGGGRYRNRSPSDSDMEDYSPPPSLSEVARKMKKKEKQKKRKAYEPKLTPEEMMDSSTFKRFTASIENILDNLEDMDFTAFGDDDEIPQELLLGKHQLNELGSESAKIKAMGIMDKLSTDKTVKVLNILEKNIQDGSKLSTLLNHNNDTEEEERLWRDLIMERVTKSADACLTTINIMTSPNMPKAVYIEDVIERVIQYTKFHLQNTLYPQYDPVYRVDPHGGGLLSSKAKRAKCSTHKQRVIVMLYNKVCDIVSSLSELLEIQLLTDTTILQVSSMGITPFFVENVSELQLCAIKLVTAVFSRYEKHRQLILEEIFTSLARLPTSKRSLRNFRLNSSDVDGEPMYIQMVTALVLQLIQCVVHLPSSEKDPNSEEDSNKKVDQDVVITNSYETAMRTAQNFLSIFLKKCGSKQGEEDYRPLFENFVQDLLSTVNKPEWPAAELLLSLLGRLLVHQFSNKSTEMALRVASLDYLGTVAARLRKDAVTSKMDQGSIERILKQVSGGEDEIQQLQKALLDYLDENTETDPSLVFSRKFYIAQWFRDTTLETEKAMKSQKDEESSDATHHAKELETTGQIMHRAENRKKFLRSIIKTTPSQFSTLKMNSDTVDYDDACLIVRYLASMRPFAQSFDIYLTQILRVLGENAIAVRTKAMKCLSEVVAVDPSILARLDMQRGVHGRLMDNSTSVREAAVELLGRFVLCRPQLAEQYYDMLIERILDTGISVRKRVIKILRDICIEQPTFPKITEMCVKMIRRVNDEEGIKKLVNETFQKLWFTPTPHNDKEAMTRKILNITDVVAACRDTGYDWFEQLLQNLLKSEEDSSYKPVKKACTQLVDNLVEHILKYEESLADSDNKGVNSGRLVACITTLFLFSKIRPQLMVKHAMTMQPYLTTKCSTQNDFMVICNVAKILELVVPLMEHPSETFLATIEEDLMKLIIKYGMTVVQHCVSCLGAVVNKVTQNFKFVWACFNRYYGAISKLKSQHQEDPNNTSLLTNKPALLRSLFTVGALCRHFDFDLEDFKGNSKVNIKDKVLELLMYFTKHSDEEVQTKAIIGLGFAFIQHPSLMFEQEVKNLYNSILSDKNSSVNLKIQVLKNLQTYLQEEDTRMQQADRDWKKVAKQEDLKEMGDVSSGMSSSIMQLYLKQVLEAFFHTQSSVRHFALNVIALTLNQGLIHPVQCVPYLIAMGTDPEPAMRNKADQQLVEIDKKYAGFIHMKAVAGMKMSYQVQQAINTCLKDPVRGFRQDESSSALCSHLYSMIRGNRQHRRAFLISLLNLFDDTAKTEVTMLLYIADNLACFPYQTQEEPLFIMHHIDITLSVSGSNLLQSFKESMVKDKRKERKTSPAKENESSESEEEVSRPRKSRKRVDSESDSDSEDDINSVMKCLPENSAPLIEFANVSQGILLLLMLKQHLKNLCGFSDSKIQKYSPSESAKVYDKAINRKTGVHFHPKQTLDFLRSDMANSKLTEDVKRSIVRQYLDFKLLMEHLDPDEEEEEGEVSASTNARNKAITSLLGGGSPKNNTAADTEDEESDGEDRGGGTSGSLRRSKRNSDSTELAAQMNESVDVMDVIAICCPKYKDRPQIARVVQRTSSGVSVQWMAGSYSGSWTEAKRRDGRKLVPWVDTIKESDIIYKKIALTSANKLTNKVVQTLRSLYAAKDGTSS
# Results are given in words; binding and its absence hold for the method and conditions named. Binding seen in cells or lysates may run through a third protein. Some binding calls cover weakened binding; strength is not graded here.
# T1: SMC1A (wildtype) (mouse (endogenous in V6.5 mESCs)) (UniProt Q9CU62)
# T1 sequence: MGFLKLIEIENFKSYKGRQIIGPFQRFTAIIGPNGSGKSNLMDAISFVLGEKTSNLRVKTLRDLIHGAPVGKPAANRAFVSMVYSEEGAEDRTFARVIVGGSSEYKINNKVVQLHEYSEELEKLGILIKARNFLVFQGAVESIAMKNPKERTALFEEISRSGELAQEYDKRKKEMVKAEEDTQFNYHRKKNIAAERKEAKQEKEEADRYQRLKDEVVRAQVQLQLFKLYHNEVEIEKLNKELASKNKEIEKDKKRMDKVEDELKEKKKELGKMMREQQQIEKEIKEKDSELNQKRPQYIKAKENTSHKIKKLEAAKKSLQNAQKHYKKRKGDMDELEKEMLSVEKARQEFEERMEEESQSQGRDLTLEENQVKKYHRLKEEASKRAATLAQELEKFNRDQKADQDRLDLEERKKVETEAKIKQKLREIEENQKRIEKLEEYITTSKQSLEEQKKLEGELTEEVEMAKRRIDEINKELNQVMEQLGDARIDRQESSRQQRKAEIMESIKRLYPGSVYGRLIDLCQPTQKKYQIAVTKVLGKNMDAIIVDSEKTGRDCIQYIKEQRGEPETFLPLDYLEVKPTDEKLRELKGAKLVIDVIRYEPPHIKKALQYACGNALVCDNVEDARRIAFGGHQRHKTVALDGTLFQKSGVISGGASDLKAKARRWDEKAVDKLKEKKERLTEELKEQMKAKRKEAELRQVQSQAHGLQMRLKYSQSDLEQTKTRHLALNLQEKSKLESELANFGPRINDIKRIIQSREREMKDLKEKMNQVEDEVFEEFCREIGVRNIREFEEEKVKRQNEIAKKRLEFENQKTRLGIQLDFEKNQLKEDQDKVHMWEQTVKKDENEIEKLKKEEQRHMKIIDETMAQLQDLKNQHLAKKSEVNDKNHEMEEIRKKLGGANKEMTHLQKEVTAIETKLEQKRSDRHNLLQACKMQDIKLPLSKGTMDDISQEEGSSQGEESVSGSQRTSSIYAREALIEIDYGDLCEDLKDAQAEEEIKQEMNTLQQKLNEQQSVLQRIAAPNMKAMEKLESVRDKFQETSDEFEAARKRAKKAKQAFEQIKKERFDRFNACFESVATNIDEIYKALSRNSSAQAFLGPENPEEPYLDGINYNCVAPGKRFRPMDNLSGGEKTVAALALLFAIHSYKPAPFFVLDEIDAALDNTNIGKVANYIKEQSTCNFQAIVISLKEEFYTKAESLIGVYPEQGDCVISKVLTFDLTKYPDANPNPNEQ
# T2: SMC1A-R586W (mouse (endogenous in V6.5 mESCs)) (UniProt Q9CU62)
# T2 sequence: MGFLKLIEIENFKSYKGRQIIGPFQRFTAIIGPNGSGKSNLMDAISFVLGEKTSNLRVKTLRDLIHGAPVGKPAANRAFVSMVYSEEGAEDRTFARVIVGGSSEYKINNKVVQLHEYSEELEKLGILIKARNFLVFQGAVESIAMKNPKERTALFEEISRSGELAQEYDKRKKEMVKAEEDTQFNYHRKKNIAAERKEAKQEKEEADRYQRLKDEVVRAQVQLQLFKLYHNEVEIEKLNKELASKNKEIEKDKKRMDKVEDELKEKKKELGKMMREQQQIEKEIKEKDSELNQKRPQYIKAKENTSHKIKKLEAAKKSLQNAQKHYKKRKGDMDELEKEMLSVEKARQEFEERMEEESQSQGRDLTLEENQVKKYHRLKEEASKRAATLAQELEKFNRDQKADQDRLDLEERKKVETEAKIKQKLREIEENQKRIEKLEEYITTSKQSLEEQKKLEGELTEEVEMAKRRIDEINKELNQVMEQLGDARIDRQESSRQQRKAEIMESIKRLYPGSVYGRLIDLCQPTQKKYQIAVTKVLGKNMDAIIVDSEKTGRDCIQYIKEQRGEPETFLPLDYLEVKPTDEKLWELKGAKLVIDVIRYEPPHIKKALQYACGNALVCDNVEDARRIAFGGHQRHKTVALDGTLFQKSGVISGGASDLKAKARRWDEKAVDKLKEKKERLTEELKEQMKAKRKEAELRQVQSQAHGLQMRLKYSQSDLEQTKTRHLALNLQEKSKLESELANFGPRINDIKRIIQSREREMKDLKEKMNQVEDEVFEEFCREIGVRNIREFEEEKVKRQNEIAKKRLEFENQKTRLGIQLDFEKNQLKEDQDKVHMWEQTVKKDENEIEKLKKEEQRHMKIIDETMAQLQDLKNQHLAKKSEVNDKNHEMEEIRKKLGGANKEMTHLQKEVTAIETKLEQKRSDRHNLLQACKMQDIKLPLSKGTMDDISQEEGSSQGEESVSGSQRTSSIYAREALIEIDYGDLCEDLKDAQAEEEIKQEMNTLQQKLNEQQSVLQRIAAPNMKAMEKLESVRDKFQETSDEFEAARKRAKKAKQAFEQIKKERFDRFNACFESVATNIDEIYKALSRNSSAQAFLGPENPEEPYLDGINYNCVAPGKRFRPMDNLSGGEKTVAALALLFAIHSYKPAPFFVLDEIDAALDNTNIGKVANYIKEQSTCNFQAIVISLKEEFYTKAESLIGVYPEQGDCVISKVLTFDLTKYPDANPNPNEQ
# Legend:
# [1] = target: T1, SMC1A (wildtype) (mouse (endogenous in V6.5 mESCs)); assay: co-IP; endogenous proteins; 250 ug benzonase-treated nuclear extract of wildtype or SMC1A-R586W mESCs in 500 ul 1x low-stringency IP buffer, overnight at 4 C; 10 ug antibody (SMC1A, NIPBL, STAG2 or non-specific rabbit IgG) on Protein G Dynabeads; western blot
# [2] = target: T2, SMC1A-R586W (mouse (endogenous in V6.5 mESCs)); assay: as above
binding [1],binding [2],Molecule
binds,binds,NIPBL (from UniProt Q6KCD5 1-2798)
–,binds,"PDS5B (protein, UniProt Q4VA53 1-1446) MAHSKTRTNDGKITYPPGVKEISDKISKEEMVRRLKMVVKTFMDMDQDSEEEKELYLNLALHLASDFFLKHPDKDVRLLVACCLADIFRIYAPEAPYTSPDKLKDIFMFITRQLKGLEDTKSPQFNRYFYLLENIAWVKSYNICFELEDSNEIFTQLYRTLFSVINNGHNQKVHMHMVDLMSSIICEGDTVSQELLDTVLVNLVPAHKNLNKQAYDLAKALLKRTAQAIEPYITNFFNQVLMLGKTSISDLSEHVFDLILELYNIDSHLLLSVLPQLEFKLKSNDNEERLQVVKLLAKMFGAKDSELASQNKPLWQCYLGRFNDIHVPIRLECVKFASHCLMNHPDLAKDLTEYLKVRSHDPEEAIRHDVIVSIVTAAKKDILLVNDHLLNFVRERTLDKRWRVRKEAMMGLAQIYKKYSLQSAAGKDAAKQISWVKDKLLHIYYQNSIDDRLLVERIFAQYMVPHNLETTERMKCLYYLYATLDLNAVKALNEMWKCQNLLRHQVKDLLDLIKQPKTDASVKAIFSKVMVITRNLPDPGKAQDFMKKFTQVLEDDEKIRKQLEALVSPTCSCKQAEGCVREITKKLGNPKQPTNPFLEMIKFLLERIAPVHIDTESISALIKQVNKSIDGTADDEDEGVPTDQAIRAGLELLKVLSFTHPISFHSAETFESLLACLKMDDEKVAEAALQIFKNTGSKIEEDFPHIRSALLPVLHHKSKKGPPRQAKYAIHCIHAIFSSKETQFAQIFEPLHKSLDPSNLEHLITPLVTIGHIALLAPDQFAAPLKSLVATFIVKDLLMNDRLPGKKTTKLWVPDEEVSPETMVKIQAIKMMVRWLLGMKNNHSKSGTSTLRLLTTILHSDGDLTEQGKISKPDMSRLRLAAGSAIVKLAQEPCYHEIITLEQYQLCALAINDECYQVRQVFAQKLHKGLSRLRLPLEYMAICALCAKDPVKERRAHARQCLVKNITVRREYLKQHAAVSEKLLSLLPEYVVPYTIHLLAHDPDYVKVQDIEQLKDVKECLWFVLEILMAKNENNSHAFIRKMVENIKQTKDAQGPDDTKMNEKLYTVCDVAMNIIMSKSTTYSLESPKDPVLPARFFTQPDKNFSNTKNYLPPEMKSFFTPGKPKTANVLGAVNKPLSSAGKQSQTKSSRMETVSNASSSSNPSSPGRIKGRLDSSEMDHSENEDYTMSSPLPGKKSDKREDPDLSELEKPRSRKKAPVTDPEEKLGMDDLTKLVQEQKPKGSQRGRKRGRTASDSDEQQWPEEKRHKEELLENEDEQNSPPKKGKRGRPPKPLGGGTSKEEPTMKTSKKGNKKKLVPPVVDDDEEEERQIGNTEHKSKSKQHRTSKRAQQRAESPETSAVESTQSTPQKGRGRPSKAPSPSQPPKKIRVGRSKQVATKENDSSEEMDVLQASSPVSDDTTQEGAEEEDISVGNVRRRSSKRERR"
–,binds,"PDS5A (protein, UniProt Q6A026 1-1332) MDFTQPKPATALCGVVSADGKIAYPPGVKEITDKITTDEMIKRLKMVVKTFMDMDQDSEDEKQQYLPLALHLASEFFLRNPNKDVRLLVACCLADIFRIYAPEAPYTSHDKLKDIFLFITRQLKGLEDTKSPQFNRYFYLLENLAWVKSYNICFELEDCNEIFIQLFRTLFSVINNSHNTKVQMHMLDLMSSIIMEGDGVTQELLDSILINLIPAHKNLNKQSFDLAKVLLKRTVQTIEACIANFFNQVLVLGRSSVSDLSEHVFDLIQELFAIDPQLLLSVMPQLEFKLKSNDGEERLAVVRLLAKLFGSKDSDLATQNRPLWQCFLGRFNDIHVPVRLESVKFASHCLMNHPDLAKDLTEYLKVRSHDPEEAIRHDVIVTIITAAKRDLALVNDQLLGFVRERTLDKRWRVRKEAMMGLAQLYKKYCLHGEAGKEAAEKVSWIKDKLLHIYYQNSIDDKLLVEKIFAQYLVPHNLETEERMKCLYYLYASLDPNAVKALNEMWKCQNMLRSHVRELLDLHKQPTSEANCSAMFGKLMTIAKNLPDPGKAQDFVKKFNQVLGDDEKLRSQLELLISPTCSCKQADVCVREIARKLANPKQPTNPFLEMVKFLLERIAPVHIDSEAISALVKLMNKSIEGTADDEEEGVSPDSAIRSGLELLKVLSFTHPTSFHSAETYESLLQCLRMEDDKVAEAAIQIFRNTGHKIETDLPQIRSTLIPILHQKAKRGTPHQAKQAVHCIHAIFSNKEVQLAQIFEPLSRSLNADVPEQLITPLVSLGHISMLAPDQFASPMKSVVANFIVKDLLMNDRSTGEKNGKLWSPDEEVSPEVLAKVYLLRLLVRWLLGMKNNQSKSANSTLRLLSAMLVSEGDLTEQKRISKSDMSRLRLAAGSAIMKLAQEPCYHEIITPEQFQLCALVINDECYQVRQIFAQKLHKALVKLLLPLEYMAIFALCAKDPVKERRAHARQCLLKNISIRREYIKQNPMATEKLLSLLPEYVVPYMIHLLAHDPDFTRSQDVDQLRDIKECLWFMLEVLMTKNENNSHAFMKKMAENIKLTRDAQSPDESKTNEKLYTVCDVALCVINSKSALCNADSPKDPVLPMKFFTQPEKDFCNDKSYISEETRVLLLTGKPKPTGVLGTVNKPLSATGRKPYVRSAGTETGSNINANSELSPSAGSRSREQSSEASETGVSENEENPVRIISVTPVKNIDTVKNKEINSDQSTQGNISSDRGKKRIVTAAGAENIQKPDEKVDESGPPAPSKPRRGRRPKSESQGNATKNDDLNKPVSKGRKRAAGSQESLEAGNAKAPKLQDGAKKAVPAERQIDLQR"
